Reference: the supplement of paper PMC11659162
± gives the standard deviation of the averaged measurements. This is one part of the list. This is a noisy data set.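 The cells are a human neuroglioma line carrying a green fluorescent autophagy reporter.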

Experiments:
H4 GFP-LC3 [1] = assay: cell viability (scaled to control) (fraction of control); higher = more viable cells
H4 GFP-LC3 [2] = assay: ACBP immunofluorescence intensity (scaled to control) (AU (scaled)); higher = more intracellular ACBP/DBI

CNCCC(Oc1ccc(C(F)(F)F)cc1)c1ccccc1 (stereo not given) (5 µM)
cell viability (H4 GFP-LC3 [1]; 6 h): 0.823
cell viability (H4 GFP-LC3 [1]; 24 h): 0.907
ACBP immunofluorescence intensity (H4 GFP-LC3 [2]; 6 h): 0.947
ACBP immunofluorescence intensity (H4 GFP-LC3 [2]; 24 h): 0.44

NCC(=O)O (5 µM)
cell viability (H4 GFP-LC3 [1]; 6 h): 1.16
cell viability (H4 GFP-LC3 [1]; 24 h): 1.06
ACBP immunofluorescence intensity (H4 GFP-LC3 [2]; 6 h): 0.729
ACBP immunofluorescence intensity (H4 GFP-LC3 [2]; 24 h): 0.575

Cc1c(C2CCN(CCc3ccccc3)CC2)noc1-c1ccc(Cl)cc1 (5 µM)
cell viability (H4 GFP-LC3 [1]; 6 h): 0.632
cell viability (H4 GFP-LC3 [1]; 24 h): 1.11
ACBP immunofluorescence intensity (H4 GFP-LC3 [2]; 6 h): 0.931
ACBP immunofluorescence intensity (H4 GFP-LC3 [2]; 24 h): 0.466

O=C(NCCNN1CCCCC1)c1ccc(I)cc1 (5 µM)
cell viability (H4 GFP-LC3 [1]; 6 h): 0.904
cell viability (H4 GFP-LC3 [1]; 24 h): 1.12
ACBP immunofluorescence intensity (H4 GFP-LC3 [2]; 6 h): 0.877
ACBP immunofluorescence intensity (H4 GFP-LC3 [2]; 24 h): 0.803

Fc1ccc(N2CCN(CCC3OCCc4ccccc43)CC2)cc1 (stereo not given) (5 µM)
cell viability (H4 GFP-LC3 [1]; 6 h): 0.735
cell viability (H4 GFP-LC3 [1]; 24 h): 1.26
ACBP immunofluorescence intensity (H4 GFP-LC3 [2]; 6 h): 0.843
ACBP immunofluorescence intensity (H4 GFP-LC3 [2]; 24 h): 0.365

CN1CCN(CCCN2c3ccccc3Sc3ccc(C(F)(F)F)cc32)CC1 (5 µM)
cell viability (H4 GFP-LC3 [1]; 6 h): 0.757
cell viability (H4 GFP-LC3 [1]; 24 h): 1.36
ACBP immunofluorescence intensity (H4 GFP-LC3 [2]; 6 h): 0.998
ACBP immunofluorescence intensity (H4 GFP-LC3 [2]; 24 h): 0.92

Cn1c(=O)c2[nH]c(-c3ccc(S(=O)(=O)O)cc3)nc2n(C)c1=O (5 µM)
cell viability (H4 GFP-LC3 [1]; 6 h): 1.04
cell viability (H4 GFP-LC3 [1]; 24 h): 1.05
ACBP immunofluorescence intensity (H4 GFP-LC3 [2]; 6 h): 0.899
ACBP immunofluorescence intensity (H4 GFP-LC3 [2]; 24 h): 0.61

N[C@H]1CCN(O)C1=O (5 µM)
cell viability (H4 GFP-LC3 [1]; 6 h): 1.19
cell viability (H4 GFP-LC3 [1]; 24 h): 1.24
ACBP immunofluorescence intensity (H4 GFP-LC3 [2]; 6 h): 0.879
ACBP immunofluorescence intensity (H4 GFP-LC3 [2]; 24 h): 0.752

CNc1cc(NS(=O)(=O)c2ccc(N)cc2)nc(NC)n1 (5 µM)
cell viability (H4 GFP-LC3 [1]; 6 h): 0.598
cell viability (H4 GFP-LC3 [1]; 24 h): 0.728
ACBP immunofluorescence intensity (H4 GFP-LC3 [2]; 6 h): 0.968
ACBP immunofluorescence intensity (H4 GFP-LC3 [2]; 24 h): 0.292

N[C@H](C(=O)O)c1ccc(C(=O)O)cc1 (5 µM)
cell viability (H4 GFP-LC3 [1]; 6 h): 1.11
cell viability (H4 GFP-LC3 [1]; 24 h): 1.48
ACBP immunofluorescence intensity (H4 GFP-LC3 [2]; 6 h): 0.956
ACBP immunofluorescence intensity (H4 GFP-LC3 [2]; 24 h): 0.552

C=CCn1c(=O)c2c(nc(-c3ccccc3)n2C)n(C)c1=O (5 µM)
cell viability (H4 GFP-LC3 [1]; 6 h): 1.02
cell viability (H4 GFP-LC3 [1]; 24 h): 1.11
ACBP immunofluorescence intensity (H4 GFP-LC3 [2]; 6 h): 0.956
ACBP immunofluorescence intensity (H4 GFP-LC3 [2]; 24 h): 0.7

N[C@@H](Cc1cc(I)c(Oc2cc(I)c(O)c(I)c2)c(I)c1)C(=O)O (5 µM)
cell viability (H4 GFP-LC3 [1]; 6 h): 1.1
cell viability (H4 GFP-LC3 [1]; 24 h): 0.965
ACBP immunofluorescence intensity (H4 GFP-LC3 [2]; 6 h): 0.432
ACBP immunofluorescence intensity (H4 GFP-LC3 [2]; 24 h): 0.651

CC(C)C[C@H](NC(=O)CNC(=O)[C@H](Cc1ccc(O)cc1)NC(=O)[C@H](CO)NC(=O)[C@H](Cc1c[nH]c2ccccc12)NC(=O)[C@H](Cc1cnc[nH]1)NC(=O)[C@@H]1CCC(=O)N1)C(=O)N[C@@H](CCCNC(=N)N)C(=O)N1CCC[C@H]1C(=O)NCC(N)=O (5 µM)
cell viability (H4 GFP-LC3 [1]; 6 h): 1.22
cell viability (H4 GFP-LC3 [1]; 24 h): 1.07
ACBP immunofluorescence intensity (H4 GFP-LC3 [2]; 6 h): 0.412
ACBP immunofluorescence intensity (H4 GFP-LC3 [2]; 24 h): 0.792

NC[C@@H](O)c1ccc(O)c(O)c1 (5 µM)
cell viability (H4 GFP-LC3 [1]; 6 h): 0.66
cell viability (H4 GFP-LC3 [1]; 24 h): 0.673
ACBP immunofluorescence intensity (H4 GFP-LC3 [2]; 6 h): 0.887
ACBP immunofluorescence intensity (H4 GFP-LC3 [2]; 24 h): 0.475

Cn1cnc2c(ncn2[C@@H]2O[C@H](CO)[C@@H](O)[C@H]2O)c1=N (5 µM)
cell viability (H4 GFP-LC3 [1]; 6 h): 0.966
cell viability (H4 GFP-LC3 [1]; 24 h): 0.858
ACBP immunofluorescence intensity (H4 GFP-LC3 [2]; 6 h): 0.997
ACBP immunofluorescence intensity (H4 GFP-LC3 [2]; 24 h): 0.612

CN1CCN(CC(=O)N2c3ccccc3C(=O)Nc3cccnc32)CC1 (5 µM)
cell viability (H4 GFP-LC3 [1]; 6 h): 0.665
cell viability (H4 GFP-LC3 [1]; 24 h): 1.18
ACBP immunofluorescence intensity (H4 GFP-LC3 [2]; 6 h): 0.959
ACBP immunofluorescence intensity (H4 GFP-LC3 [2]; 24 h): 0.565

Cn1cc(C(F)(F)F)nc1-c1ccc(OCC(O)CNCCOc2ccc(O)c(C(N)=O)c2)cc1 (stereo not given) (5 µM)
cell viability (H4 GFP-LC3 [1]; 6 h): 0.713
cell viability (H4 GFP-LC3 [1]; 24 h): 0.849
ACBP immunofluorescence intensity (H4 GFP-LC3 [2]; 6 h): 0.905
ACBP immunofluorescence intensity (H4 GFP-LC3 [2]; 24 h): 0.786

COc1ccccc1N1CCN(CCN(C(=O)C2CCCCC2)c2ccccn2)CC1 (5 µM)
cell viability (H4 GFP-LC3 [1]; 6 h): 0.898
cell viability (H4 GFP-LC3 [1]; 24 h): 1.13
ACBP immunofluorescence intensity (H4 GFP-LC3 [2]; 6 h): 0.876
ACBP immunofluorescence intensity (H4 GFP-LC3 [2]; 24 h): 0.638

CSCC[C@H](NC(=O)[C@H](Cc1ccc(OS(=O)(=O)O)cc1)NC(=O)[C@@H](N)CC(=O)O)C(=O)NCC(=O)N[C@@H](Cc1c[nH]c2ccccc12)C(=O)N[C@@H](CCSC)C(=O)N[C@@H](CC(=O)O)C(=O)N[C@@H](Cc1ccccc1)C(N)=O (5 µM)
cell viability (H4 GFP-LC3 [1]; 6 h): 1.19
cell viability (H4 GFP-LC3 [1]; 24 h): 0.98
ACBP immunofluorescence intensity (H4 GFP-LC3 [2]; 6 h): 0.297
ACBP immunofluorescence intensity (H4 GFP-LC3 [2]; 24 h): 0.647

COc1ccc(-c2ccc(=N)n(CCCC(=O)O)n2)cc1 (5 µM)
cell viability (H4 GFP-LC3 [1]; 6 h): 0.944
cell viability (H4 GFP-LC3 [1]; 24 h): 1.24
ACBP immunofluorescence intensity (H4 GFP-LC3 [2]; 6 h): 0.856
ACBP immunofluorescence intensity (H4 GFP-LC3 [2]; 24 h): 0.59

O=C1CC2(CCCC2)CC(=O)N1CCNCC1COc2ccccc2O1 (stereo not given) (5 µM)
cell viability (H4 GFP-LC3 [1]; 6 h): 0.847
cell viability (H4 GFP-LC3 [1]; 24 h): 1.02
ACBP immunofluorescence intensity (H4 GFP-LC3 [2]; 6 h): 0.804
ACBP immunofluorescence intensity (H4 GFP-LC3 [2]; 24 h): 0.425

NCC=CC(=O)O (stereo in doubt) (5 µM)
cell viability (H4 GFP-LC3 [1]; 6 h): 0.937
cell viability (H4 GFP-LC3 [1]; 24 h): 1.13
ACBP immunofluorescence intensity (H4 GFP-LC3 [2]; 6 h): 0.889
ACBP immunofluorescence intensity (H4 GFP-LC3 [2]; 24 h): 0.787

O=C(O)C=C1CCCc2ccccc2C1O (stereo not given) (5 µM)
cell viability (H4 GFP-LC3 [1]; 6 h): 0.861
cell viability (H4 GFP-LC3 [1]; 24 h): 0.956
ACBP immunofluorescence intensity (H4 GFP-LC3 [2]; 6 h): 0.898
ACBP immunofluorescence intensity (H4 GFP-LC3 [2]; 24 h): 0.41

N[C@H](CCC(=O)NCC(=O)O)C(=O)O (5 µM)
cell viability (H4 GFP-LC3 [1]; 6 h): 1.13
cell viability (H4 GFP-LC3 [1]; 24 h): 1.13
ACBP immunofluorescence intensity (H4 GFP-LC3 [2]; 6 h): 0.829
ACBP immunofluorescence intensity (H4 GFP-LC3 [2]; 24 h): 0.397

C[N+]1(Cc2ccccc2)CCC(C(=O)OCC2CCCC2)CC1 (stereo not given) (5 µM)
cell viability (H4 GFP-LC3 [1]; 6 h): 1
cell viability (H4 GFP-LC3 [1]; 24 h): 1.38
ACBP immunofluorescence intensity (H4 GFP-LC3 [2]; 6 h): 0.957
ACBP immunofluorescence intensity (H4 GFP-LC3 [2]; 24 h): 0.624

NC(C(=O)O)(c1ccc(P(=O)(O)O)cc1)C1CC1 (racemic) (5 µM)
cell viability (H4 GFP-LC3 [1]; 6 h): 0.901
cell viability (H4 GFP-LC3 [1]; 24 h): 1.19
ACBP immunofluorescence intensity (H4 GFP-LC3 [2]; 6 h): 0.94
ACBP immunofluorescence intensity (H4 GFP-LC3 [2]; 24 h): 0.586

NC[C@H](O)c1ccc(O)c(O)c1 (5 µM)
cell viability (H4 GFP-LC3 [1]; 6 h): 1.21
cell viability (H4 GFP-LC3 [1]; 24 h): 0.946
ACBP immunofluorescence intensity (H4 GFP-LC3 [2]; 6 h): 0.555
ACBP immunofluorescence intensity (H4 GFP-LC3 [2]; 24 h): 0.905

Cc1cccc(C(=O)NCN2CCN(c3ccccc3C#N)CC2)c1 (5 µM)
cell viability (H4 GFP-LC3 [1]; 6 h): 0.837
cell viability (H4 GFP-LC3 [1]; 24 h): 1.36
ACBP immunofluorescence intensity (H4 GFP-LC3 [2]; 6 h): 0.99
ACBP immunofluorescence intensity (H4 GFP-LC3 [2]; 24 h): 0.864

C=C1/C(=C\C=C2/CCC[C@]3(C)[C@@H]([C@H](C)CCCC(C)(C)O)CC[C@@H]23)C[C@@H](O)C[C@@H]1O (5 µM)
cell viability (H4 GFP-LC3 [1]; 6 h): 1.11
cell viability (H4 GFP-LC3 [1]; 24 h): 1.02
ACBP immunofluorescence intensity (H4 GFP-LC3 [2]; 6 h): 0.359
ACBP immunofluorescence intensity (H4 GFP-LC3 [2]; 24 h): 0.671

CC(C)C[C@H](NC(=O)[C@H](CCCCN)NC(=O)[C@H](CCCNC(=N)N)NC(=O)[C@H](C)NC(=O)[C@H](CO)NC(=O)[C@H](CCCCN)NC(=O)[C@H](CCCNC(=N)N)NC(=O)[C@H](C)NC(=O)CNC(=O)[C@@H](NC(=O)[C@H](Cc1ccccc1)NC(=O)CNC(=O)CNC(=O)[C@@H](N)Cc1ccccc1)[C@@H](C)O)C(=O)N[C@@H](C)C(=O)N[C@@H](CC(N)=O)C(=O)N[C@@H](CCC(N)=O)C(=O)O (5 µM)
cell viability (H4 GFP-LC3 [1]; 6 h): 1.11 ± 0.14
cell viability (H4 GFP-LC3 [1]; 24 h): 1.07 ± 0.32
ACBP immunofluorescence intensity (H4 GFP-LC3 [2]; 6 h): 0.691 ± 0.16
ACBP immunofluorescence intensity (H4 GFP-LC3 [2]; 24 h): 0.799 ± 0.14
